Data as given in PubChem BioAssay AID504791 (Drosophila RNAi Screening Center, 2011).

Assay: 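Factors in Argonaute-based small RNA production and activity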 (primary screen)
Cell system: Drosophila S2-derived reporter cells
Reagent: long dsRNA against Drosophila genes, about 150-250 ng dsRNA per well (siRNA assay); about 80-120 ng (miRNA assay)
Time to read-out: about 5 days (siRNA assay); about 4 days (miRNA assay)
Conditions: copper sulfate induction of reporters: 25 µM (siRNA assay); 200 mM stated (miRNA assay), 1-2 days before reading
Detection: 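Per-well ratio of Renilla over firefly light, expressed relative to that plate's average ratio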
Hit rule: 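First-pass picks had plate-scaled ratios over 1.5 for the siRNA assay, over 1.6 for the miRNA assay, or under 0.6; two distinct dsRNAs had to score alike on retest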
In all, the deposit lists about 23,000 reagents; below is an unselected part of those with a known target gene and a result. Of all reagents, 199 (0.86%) were called active. 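Plate-scaled ratios behind the calls are not deposited; printed light signals are raw; many rows marked increased or decreased are still called inactive.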 A plus sign joins genes that one reagent is predicted to hit. The record does not give: the direction of the score.

target gene | DRSC id | stable siRNA reporter change | miRNA reporter change | stable assay Renilla, run 1 (luminescence) | stable assay firefly, run 1 (luminescence) | outcome
GluClalpha | DRSC16680 | – | – | 6647 | 3.69e5 | inactive
CG6108 (retired record) | DRSC02929 | – | – | 7182 | 5.49e5 | inactive
ref(2)P | DRSC03601 | – | – | 7256 | 4.35e5 | inactive
ph-d | DRSC18819 | – | – | 4903 | 2.14e5 | inactive
ph-d | DRSC23191 | – | – | 2892 | 2.40e5 | inactive
CG17806 | DRSC15276 | – | – | 7797 | 2.48e5 | inactive
SLO2 | DRSC06212 | reporter ratio raised past the hit cutoff | – | 4991 | 1.68e5 | inactive
SLO2 | DRSC06214 | – | – | 7411 | 4.68e5 | inactive
SLO2 | DRSC06216 | – | – | 6896 | 4.53e5 | inactive
SLO2 | DRSC06218 | – | – | 6774 | 3.74e5 | inactive
SLO2 | DRSC06219 | – | – | 5278 | 2.10e5 | inactive
SLO2 | DRSC23225 | – | – | 4071 | 2.40e5 | inactive
Tango2 | DRSC19394 | – | – | 7945 | 4.96e5 | inactive
Tango2 | DRSC21526 | – | – | 9460 | 4.14e5 | inactive

Records above whose target name begins with C or c (2):
target gene | DRSC id | stable siRNA reporter change | miRNA reporter change | stable assay Renilla, run 1 (luminescence) | stable assay firefly, run 1 (luminescence) | outcome
CG6108 (retired record) | DRSC02929 | – | – | 7182 | 5.49e5 | inactive
CG17806 | DRSC15276 | – | – | 7797 | 2.48e5 | inactive

The list goes on.
target gene | DRSC id | stable siRNA reporter change | miRNA reporter change | stable assay Renilla, run 1 (luminescence) | stable assay firefly, run 1 (luminescence) | outcome
Dr | DRSC17002 | – | – | 4231 | 3.66e5 | inactive
Dr | DRSC22708 | – | – | 4491 | 4.66e5 | inactive
CG5070 | DRSC19932 | – | – | 5540 | 3.61e5 | inactive
CG31431 | DRSC14589 | – | – | 8144 | 3.70e5 | inactive
Lcp4 | DRSC07458 | – | – | 6248 | 3.52e5 | inactive
Lcp4 | DRSC25194 | – | reporter ratio raised past the hit cutoff | – | – | active
rdgC | DRSC11387 | – | – | 6842 | 5.34e5 | inactive
CG17821 | DRSC06696 | – | – | 5884 | 2.83e5 | inactive
Obp56e | DRSC07188 | – | – | 5966 | 3.09e5 | inactive
CG9444 | DRSC16493 | – | – | 7639 | 3.86e5 | inactive
E(spl)m3-HLH | DRSC16694 | – | – | 5296 | 1.78e5 | inactive
E(spl)m3-HLH | DRSC23160 | – | – | 4991 | 4.41e5 | inactive
SecS | DRSC12222 | – | – | 7216 | 4.14e5 | inactive
CG42496 + Ppcdc | DRSC03886 | – | – | 3676 | 3.49e5 | inactive
CG14540 | DRSC14884 | – | – | 6799 | 3.04e5 | inactive
Blm + CG14721 | DRSC14943 | – | – | 7669 | 5.04e5 | inactive
CG12971 | DRSC11681 | – | – | 7147 | 3.39e5 | inactive
Smu1 | DRSC15803 | – | – | 9904 | 5.47e5 | inactive
CG2961 | DRSC18246 | – | – | 5655 | 4.01e5 | inactive
Cdc37 | DRSC08648 | – | – | 4291 | 3.32e5 | inactive
